# According to paper PMC7862700:
# The entries are a selection whose mix differs from that of the whole data set. At the low end of the ranking the order means little.
# Molecular target: T1, ELK1 (UniProt P19419)
# T1 sequence: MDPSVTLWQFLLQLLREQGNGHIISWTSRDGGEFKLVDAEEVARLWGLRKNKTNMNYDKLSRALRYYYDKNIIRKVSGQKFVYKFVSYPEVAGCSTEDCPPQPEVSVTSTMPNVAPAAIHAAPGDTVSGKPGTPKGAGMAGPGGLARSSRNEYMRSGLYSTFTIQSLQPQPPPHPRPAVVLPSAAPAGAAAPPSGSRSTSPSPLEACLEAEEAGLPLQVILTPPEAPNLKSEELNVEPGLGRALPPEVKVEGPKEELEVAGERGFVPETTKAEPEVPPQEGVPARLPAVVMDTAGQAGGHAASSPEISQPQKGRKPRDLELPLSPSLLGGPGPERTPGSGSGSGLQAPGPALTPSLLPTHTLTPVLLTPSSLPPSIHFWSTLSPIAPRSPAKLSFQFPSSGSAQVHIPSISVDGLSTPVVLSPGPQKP
# Assay: DAPPL (digital affinity profiling via proximity ligation, sequencing)
# Settings: 10 mM Tris-HCl pH 7.5, 50 mM NaCl, 1 mM DTT, 4% glycerol, room temperature, 30 min; GST-TFs on glutathione beads, 16-mer random dsDNA library, 0.1% …; high values mean tight binding; double strand, one strand shown; scale: fold enrichment (6-mer frequency, TF over GST control)
row,Sequence,binding signal
1,TTTTTG,1.29
2,GATGTC,1.37
3,TGTTAC,1.55
4,ATAAAG,1.01
5,TACTCC,1.2
6,TTGTGC,1.25
7,TTGGCT,1.07
8,TTAATC,1.21
9,CGAACA,1.08
10,GGAACT,1.8
11,AGTCTC,1.02
12,CATGGT,1.29
13,CTGCGC,1.4
14,CCCTCA,1.11
15,TCCATT,1.16
16,TACCAT,1.09
17,CTGTGC,1.18
18,CGTTAT,1.11
19,ATGACC,1.58
20,CCTAAC,1.43

row,Sequence,binding signal
1,CACGTA,1.18
2,AACTCA,1.27
3,CTTAAT,1.2
4,AGTAGC,0.981
5,AGTGGC,1.19
6,TTTTTC,1.15
7,ATATAA,1.22
8,GTTCCT,1.69
9,CCAAAC,1.13
10,CTGCTT,1.57
11,TAATCC,1.26
12,GTTCTG,1.21
13,GATCAA,0.979
14,CACTCC,1.41
15,AAGGTT,1.15
16,ACCCAA,1.15
17,GCCGCT,1.08
18,TTGACT,1.19
19,AAACTA,1.23

# Molecular target: T2, ETS2 (UniProt P15036)
# T2 sequence: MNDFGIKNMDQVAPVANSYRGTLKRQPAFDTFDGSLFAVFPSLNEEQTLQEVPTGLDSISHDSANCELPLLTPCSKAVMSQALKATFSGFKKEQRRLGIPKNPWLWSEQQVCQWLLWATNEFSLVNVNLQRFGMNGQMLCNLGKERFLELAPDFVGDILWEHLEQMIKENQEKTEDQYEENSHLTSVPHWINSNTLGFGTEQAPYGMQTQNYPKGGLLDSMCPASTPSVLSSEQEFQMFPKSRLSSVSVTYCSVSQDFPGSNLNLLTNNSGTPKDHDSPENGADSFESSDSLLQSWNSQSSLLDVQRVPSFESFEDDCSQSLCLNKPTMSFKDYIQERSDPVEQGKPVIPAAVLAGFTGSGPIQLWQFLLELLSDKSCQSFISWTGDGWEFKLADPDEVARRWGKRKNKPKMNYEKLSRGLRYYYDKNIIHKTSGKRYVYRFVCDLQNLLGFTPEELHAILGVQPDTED
# Assay: as above
# Settings: 10 mM Tris-HCl pH 7.5, 50 mM NaCl, 1 mM DTT, 4% glycerol, room temperature, 30 min; GST-TFs on glutathione beads, 16-mer random dsDNA library, 0.1% …; high values mean tight binding; double strand, one strand shown; scale: fold enrichment (6-mer frequency, TF over GST control)
row,Sequence,binding signal
1,TTGGCT,0.949
2,TACCAT,1.22
3,CACGTA,1.14
4,CTTAAT,1.37
5,CCAAAC,1.1
6,CTGCTT,1.63
